Measurements as given in US20200071416A1 (ASTUTE MEDICAL, published 2020).
No constants are given. Whether binding was seen depends on the method and setting. Some binding calls cover weakened binding; strength is not graded here.

Tests used:
[1] = target: T1, TIMP-2 region 33…41 (human); assay: Pepscan ELISA on linear 15-mer TIMP-2 peptides
T1 sequence (peptide): HPQQAFCNA

[2] = target: T2, TIMP-2 region 196…205 (human); assay: Pepscan ELISA on linear 15-mer TIMP-2 peptides
T2 sequence (peptide): RSDGSCAWYR

- binding [1]: binds
- binding [2]: binds
B1: antibody 40H2-40K3 (antibody, V domains shown)
VH: QSLEESGGDLVKPEGSLTLTCTASGFTISSNYYMCWVRQAPGKGLEWVACILGGSGTYTYYATWAKGRFTISKTSSTTVTLQMPSLTAADTATYFCARQAPADTYLYGGYGPFNLWGQGTLVTVSS
VL: DIVMTQTPSSVEAAVGGTVTIKCQASESISGWLAWYQQKPGQPPKLLIYRASTLESGVPSRFKGSGSGTEFTLTISDLECADAATYYCQCSYGINGNSEHGNPFGGGTEVVVKR
